Measured data: PubChem BioAssay AID1259254 (NCATS, 2017)

Purpose: 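Gene knock-downs that lead to re-replication, shown by excess G2 DNA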 (primary screen)
Cell system: human HCT116 colorectal cancer cells
Reagent: single siRNA against human genes
Time to read-out: 3 days
Measurement: 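Imaged Hoechst DNA stain sorts each cell into a cycle phase by DNA amount; per plate, G2 fraction set to 0% for non-targeting and 100% for GMNN siRNA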
Direction: G2 robust z-score and G2 cells, % of GMNN control: higher = more G2 cells, more excess DNA replication; raw share of cells in G2: higher = larger share of cells with G2 DNA content
Call rule: 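Active siRNAs have a G2 robust z of 5 or more median absolute deviations over the median, which in these data means about 38% or higher of GMNN control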
This is an unselected part of about 59,000 reagents tested. About 1,550 of them (2.6%) count as active. 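G2 share is only a proxy for re-replication; each gene was hit by three separate siRNAs, and active genes were retested.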 The raw values are shown without normalisation. A number with no mark means an inactive call. The numbers tell different reagents against one gene apart. The record does not give: the amount of reagent.

| Target gene | siRNA no. | G2 robust z-score | G2 cells, % of GMNN control | raw share of cells in G2 (%) |
| --- | --- | --- | --- | --- |
| ARL2BP (GeneID 23568) | 1 | 2.42 | 20 | 11.9 |
| ARL2BP (GeneID 23568) | 2 | 2.19 | 18.4 | 11.9 |
| ARL2BP (GeneID 23568) | 3 | -0.672 | -1.76 | 2.68 |
| KIT (GeneID 3815) | 1 | 0.389 | 5.7 | 7.49 |
| KIT (GeneID 3815) | 2 | -1.12 | -4.91 | 3.76 |
| KIT (GeneID 3815) | 3 | -0.525 | -0.723 | 3.77 |
| KLK1 (GeneID 3816) | 1 | 0.461 | 6.21 | 7.72 |
| KLK1 (GeneID 3816) | 2 | -0.398 | 0.166 | 4.97 |
| KLK1 (GeneID 3816) | 3 | 0.00978 | 3.04 | 5.04 |
| MARVELD2 (GeneID 153562) | 1 | 0.705 | 7.93 | 6.44 |
| MARVELD2 (GeneID 153562) | 2 | 0.492 | 6.43 | 5.11 |
| MARVELD2 (GeneID 153562) | 3 | -0.4 | 0.153 | 2.81 |
| CLEC4F (GeneID 165530) | 1 | 0.221 | 4.52 | 6.6 |
| CLEC4F (GeneID 165530) | 2 | -0.515 | -0.653 | 5.65 |
| CLEC4F (GeneID 165530) | 3 | 4.13 | 32 | 16.4 |
| PPIAP59 (GeneID 390956) | 1 | 0.397 | 5.76 | 5.8 |
| PPIAP59 (GeneID 390956) | 2 | 0.0437 | 3.27 | 6.15 |
| PPIAP59 (GeneID 390956) | 3 | -0.303 | 0.838 | 4.12 |
| FSTL3 (GeneID 10272) | 1 | 0.259 | 4.79 | 7.5 |
| FSTL3 (GeneID 10272) | 2 | 0.833 | 8.83 | 7.63 |
| FSTL3 (GeneID 10272) | 3 | 5.25 (active) | 39.9 | 17.9 |
| KANSL1L (GeneID 151050) | 1 | -0.993 | -4.02 | 2.48 |
| KANSL1L (GeneID 151050) | 2 | -1.12 | -4.9 | 1.4 |
| KANSL1L (GeneID 151050) | 3 | -0.661 | -1.68 | 2.48 |
| CDR1 (GeneID 1038) | 1 | 0.134 | 3.91 | 5.05 |
| CDR1 (GeneID 1038) | 2 | 1.82 | 15.8 | 12.7 |
| CDR1 (GeneID 1038) | 3 | 3.16 | 25.2 | 13.3 |
| NPL (GeneID 80896) | 1 | -1.05 | -4.42 | 2.59 |
| NPL (GeneID 80896) | 2 | 4.13 | 32 | 18.8 |
| NPL (GeneID 80896) | 3 | 0.155 | 4.06 | 6.29 |

Looked up above:
Result for KLK1 (GeneID 3816) #2 in “raw share of cells in G2 (%)”: 4.97
NPL (GeneID 80896) #3, G2 cells, % of GMNN control → 4.06
Result of CDR1 (GeneID 1038) #3 under “G2 cells, % of GMNN control”: 25.2
MARVELD2 (GeneID 153562) #2, raw share of cells in G2 (%) = 5.11
